Measurements from the supplement of paper PMC10849652.
The other results are listed elsewhere or left out.

Sequences of proteins named here, by UniProt entry; tags and fusion partners are left off. A change or cut given only in a name is not applied to a line headed by its entry.
UniProt Q6UXN9, whole entry, looked up: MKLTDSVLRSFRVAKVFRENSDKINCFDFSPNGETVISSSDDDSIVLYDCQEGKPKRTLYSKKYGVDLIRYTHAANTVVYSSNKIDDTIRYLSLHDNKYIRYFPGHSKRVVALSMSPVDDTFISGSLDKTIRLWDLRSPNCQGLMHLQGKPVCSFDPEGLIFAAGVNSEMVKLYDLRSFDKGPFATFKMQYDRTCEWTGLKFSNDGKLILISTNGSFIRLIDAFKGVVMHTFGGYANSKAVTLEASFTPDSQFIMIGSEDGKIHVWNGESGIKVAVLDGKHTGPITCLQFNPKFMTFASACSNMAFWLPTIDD
UniProt Q9HD64: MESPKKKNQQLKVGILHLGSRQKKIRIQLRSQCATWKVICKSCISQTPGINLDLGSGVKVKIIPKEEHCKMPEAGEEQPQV
UniProt Q6VEQ5: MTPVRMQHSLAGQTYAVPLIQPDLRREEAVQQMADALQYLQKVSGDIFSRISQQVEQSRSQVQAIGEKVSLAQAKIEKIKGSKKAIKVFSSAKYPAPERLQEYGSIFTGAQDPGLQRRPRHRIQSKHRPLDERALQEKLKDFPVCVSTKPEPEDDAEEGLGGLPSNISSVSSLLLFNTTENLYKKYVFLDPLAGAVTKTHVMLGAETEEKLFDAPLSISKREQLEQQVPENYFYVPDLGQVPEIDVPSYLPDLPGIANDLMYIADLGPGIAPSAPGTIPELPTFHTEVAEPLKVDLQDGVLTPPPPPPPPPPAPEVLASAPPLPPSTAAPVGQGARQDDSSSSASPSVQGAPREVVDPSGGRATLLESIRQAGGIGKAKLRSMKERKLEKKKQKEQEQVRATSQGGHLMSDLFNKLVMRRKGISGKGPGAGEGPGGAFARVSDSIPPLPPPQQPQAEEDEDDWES
UniProt Q562E7: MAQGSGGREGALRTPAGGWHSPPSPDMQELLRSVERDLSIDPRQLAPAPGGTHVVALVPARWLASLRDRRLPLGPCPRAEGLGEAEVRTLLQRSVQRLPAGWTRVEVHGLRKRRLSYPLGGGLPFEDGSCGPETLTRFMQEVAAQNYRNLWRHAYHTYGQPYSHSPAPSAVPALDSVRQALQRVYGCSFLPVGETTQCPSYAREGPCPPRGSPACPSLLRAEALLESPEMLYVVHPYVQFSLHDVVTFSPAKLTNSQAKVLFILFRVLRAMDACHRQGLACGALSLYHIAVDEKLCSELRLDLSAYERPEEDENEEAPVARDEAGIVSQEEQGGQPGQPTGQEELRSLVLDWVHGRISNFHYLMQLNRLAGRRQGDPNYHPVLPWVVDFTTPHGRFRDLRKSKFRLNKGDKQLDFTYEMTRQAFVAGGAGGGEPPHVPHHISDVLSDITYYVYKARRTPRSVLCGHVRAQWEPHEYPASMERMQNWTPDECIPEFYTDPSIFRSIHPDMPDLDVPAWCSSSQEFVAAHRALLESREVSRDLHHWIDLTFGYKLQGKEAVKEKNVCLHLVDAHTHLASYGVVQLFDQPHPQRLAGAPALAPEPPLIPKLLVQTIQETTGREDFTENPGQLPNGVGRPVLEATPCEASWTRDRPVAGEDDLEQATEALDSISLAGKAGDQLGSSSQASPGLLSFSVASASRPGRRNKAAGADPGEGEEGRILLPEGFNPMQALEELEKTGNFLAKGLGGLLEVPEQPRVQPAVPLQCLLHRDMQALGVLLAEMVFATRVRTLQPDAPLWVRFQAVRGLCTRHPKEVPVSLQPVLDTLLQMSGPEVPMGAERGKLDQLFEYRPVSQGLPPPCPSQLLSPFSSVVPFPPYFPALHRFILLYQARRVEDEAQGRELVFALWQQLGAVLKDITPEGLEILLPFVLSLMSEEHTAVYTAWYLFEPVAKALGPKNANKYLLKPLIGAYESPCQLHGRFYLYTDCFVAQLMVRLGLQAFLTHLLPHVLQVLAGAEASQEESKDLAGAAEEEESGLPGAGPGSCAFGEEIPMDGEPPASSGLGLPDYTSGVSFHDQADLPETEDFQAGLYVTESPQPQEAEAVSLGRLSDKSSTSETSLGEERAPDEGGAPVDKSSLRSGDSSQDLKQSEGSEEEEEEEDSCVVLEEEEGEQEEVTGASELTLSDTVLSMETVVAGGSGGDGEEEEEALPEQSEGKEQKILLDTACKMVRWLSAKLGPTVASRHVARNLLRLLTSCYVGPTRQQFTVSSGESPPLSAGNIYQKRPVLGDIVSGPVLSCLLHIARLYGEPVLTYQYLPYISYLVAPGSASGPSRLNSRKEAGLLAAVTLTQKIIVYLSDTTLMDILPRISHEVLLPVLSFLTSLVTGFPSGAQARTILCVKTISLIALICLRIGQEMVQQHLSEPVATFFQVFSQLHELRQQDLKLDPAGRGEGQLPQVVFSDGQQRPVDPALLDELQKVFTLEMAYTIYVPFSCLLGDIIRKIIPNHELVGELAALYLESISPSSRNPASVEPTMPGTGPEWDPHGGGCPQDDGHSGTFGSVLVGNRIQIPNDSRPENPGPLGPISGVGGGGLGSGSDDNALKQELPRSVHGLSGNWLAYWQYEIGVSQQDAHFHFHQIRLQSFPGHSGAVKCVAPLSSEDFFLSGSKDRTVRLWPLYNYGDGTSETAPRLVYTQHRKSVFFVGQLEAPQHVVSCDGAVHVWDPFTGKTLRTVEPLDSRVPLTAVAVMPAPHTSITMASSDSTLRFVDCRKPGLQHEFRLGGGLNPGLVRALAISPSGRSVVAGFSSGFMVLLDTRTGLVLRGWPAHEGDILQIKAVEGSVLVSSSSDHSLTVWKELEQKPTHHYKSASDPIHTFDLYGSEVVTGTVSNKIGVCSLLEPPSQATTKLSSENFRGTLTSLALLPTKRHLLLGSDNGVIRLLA
UniProt Q9P1Q0: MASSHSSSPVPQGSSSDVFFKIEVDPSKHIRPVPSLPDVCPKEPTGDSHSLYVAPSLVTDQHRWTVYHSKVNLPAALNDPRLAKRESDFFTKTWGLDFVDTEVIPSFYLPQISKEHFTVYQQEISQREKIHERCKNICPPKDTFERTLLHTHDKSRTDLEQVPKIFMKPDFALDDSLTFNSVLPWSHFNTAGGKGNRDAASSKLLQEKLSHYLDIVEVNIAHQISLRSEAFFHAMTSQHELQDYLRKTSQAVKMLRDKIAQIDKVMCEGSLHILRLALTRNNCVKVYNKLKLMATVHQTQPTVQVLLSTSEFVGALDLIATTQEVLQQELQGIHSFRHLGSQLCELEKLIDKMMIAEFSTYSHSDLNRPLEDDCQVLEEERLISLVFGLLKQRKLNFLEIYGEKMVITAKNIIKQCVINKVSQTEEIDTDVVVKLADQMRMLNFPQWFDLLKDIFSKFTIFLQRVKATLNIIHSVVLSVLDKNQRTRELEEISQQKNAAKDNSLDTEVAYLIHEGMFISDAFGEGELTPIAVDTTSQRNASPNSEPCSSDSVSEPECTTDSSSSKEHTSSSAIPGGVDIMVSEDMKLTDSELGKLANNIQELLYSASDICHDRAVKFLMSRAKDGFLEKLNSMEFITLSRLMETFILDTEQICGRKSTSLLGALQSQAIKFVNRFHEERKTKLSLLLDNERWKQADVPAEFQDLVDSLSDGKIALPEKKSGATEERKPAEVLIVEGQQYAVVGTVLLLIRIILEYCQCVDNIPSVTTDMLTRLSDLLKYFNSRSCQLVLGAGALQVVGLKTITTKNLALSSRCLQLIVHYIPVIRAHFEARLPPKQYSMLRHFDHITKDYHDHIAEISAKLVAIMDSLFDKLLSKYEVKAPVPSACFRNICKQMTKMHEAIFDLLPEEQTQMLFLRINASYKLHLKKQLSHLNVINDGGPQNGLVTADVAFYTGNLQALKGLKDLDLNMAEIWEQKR
UniProt Q9Y484: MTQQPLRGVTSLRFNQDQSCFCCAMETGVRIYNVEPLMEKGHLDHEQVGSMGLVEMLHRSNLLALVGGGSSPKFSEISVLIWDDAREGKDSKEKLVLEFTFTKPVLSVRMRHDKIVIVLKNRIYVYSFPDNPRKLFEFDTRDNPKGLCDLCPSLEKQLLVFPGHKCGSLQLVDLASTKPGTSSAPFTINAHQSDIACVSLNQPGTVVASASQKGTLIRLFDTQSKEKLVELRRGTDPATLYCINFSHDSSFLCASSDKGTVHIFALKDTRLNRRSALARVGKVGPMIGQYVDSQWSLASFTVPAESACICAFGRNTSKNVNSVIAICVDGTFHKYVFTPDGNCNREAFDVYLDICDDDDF
UniProt Q96JC1: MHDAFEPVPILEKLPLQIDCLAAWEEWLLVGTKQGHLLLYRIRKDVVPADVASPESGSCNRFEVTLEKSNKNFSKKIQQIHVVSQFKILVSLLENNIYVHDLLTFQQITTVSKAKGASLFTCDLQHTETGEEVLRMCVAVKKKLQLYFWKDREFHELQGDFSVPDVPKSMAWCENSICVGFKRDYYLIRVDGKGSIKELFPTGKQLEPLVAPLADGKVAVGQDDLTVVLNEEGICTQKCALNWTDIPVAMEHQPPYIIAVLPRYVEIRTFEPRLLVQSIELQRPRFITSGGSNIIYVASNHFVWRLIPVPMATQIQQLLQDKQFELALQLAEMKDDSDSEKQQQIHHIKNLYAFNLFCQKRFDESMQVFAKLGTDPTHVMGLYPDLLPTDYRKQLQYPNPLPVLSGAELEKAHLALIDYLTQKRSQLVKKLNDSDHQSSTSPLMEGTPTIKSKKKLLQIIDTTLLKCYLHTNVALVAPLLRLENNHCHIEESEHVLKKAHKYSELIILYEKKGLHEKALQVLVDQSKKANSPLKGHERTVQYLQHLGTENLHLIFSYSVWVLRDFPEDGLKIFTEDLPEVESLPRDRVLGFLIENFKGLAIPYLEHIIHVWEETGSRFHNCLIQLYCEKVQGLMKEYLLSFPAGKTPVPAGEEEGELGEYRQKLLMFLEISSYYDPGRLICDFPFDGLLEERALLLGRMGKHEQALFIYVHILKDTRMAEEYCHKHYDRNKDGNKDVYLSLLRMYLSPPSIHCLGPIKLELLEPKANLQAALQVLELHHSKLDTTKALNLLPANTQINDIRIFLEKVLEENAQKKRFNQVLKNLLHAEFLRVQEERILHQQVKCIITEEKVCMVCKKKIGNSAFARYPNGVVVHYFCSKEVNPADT
UniProt P30291: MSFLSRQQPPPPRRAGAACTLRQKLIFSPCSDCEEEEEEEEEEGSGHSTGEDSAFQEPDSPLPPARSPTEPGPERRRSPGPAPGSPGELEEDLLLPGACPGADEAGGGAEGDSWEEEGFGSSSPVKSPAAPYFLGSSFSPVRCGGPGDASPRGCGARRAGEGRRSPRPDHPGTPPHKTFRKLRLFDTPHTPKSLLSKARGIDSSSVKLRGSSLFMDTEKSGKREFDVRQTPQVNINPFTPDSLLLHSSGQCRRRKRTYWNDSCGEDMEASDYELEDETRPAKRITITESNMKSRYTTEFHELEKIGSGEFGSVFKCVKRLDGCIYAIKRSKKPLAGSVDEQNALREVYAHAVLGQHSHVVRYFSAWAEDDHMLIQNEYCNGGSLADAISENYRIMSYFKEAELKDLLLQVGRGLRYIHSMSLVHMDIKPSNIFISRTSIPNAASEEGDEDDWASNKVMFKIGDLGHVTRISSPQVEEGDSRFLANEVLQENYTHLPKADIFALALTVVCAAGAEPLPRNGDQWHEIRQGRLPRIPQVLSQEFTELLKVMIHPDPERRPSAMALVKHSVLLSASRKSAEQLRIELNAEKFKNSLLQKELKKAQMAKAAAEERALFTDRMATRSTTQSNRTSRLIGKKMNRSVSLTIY
UniProt P98170, whole entry, looked up: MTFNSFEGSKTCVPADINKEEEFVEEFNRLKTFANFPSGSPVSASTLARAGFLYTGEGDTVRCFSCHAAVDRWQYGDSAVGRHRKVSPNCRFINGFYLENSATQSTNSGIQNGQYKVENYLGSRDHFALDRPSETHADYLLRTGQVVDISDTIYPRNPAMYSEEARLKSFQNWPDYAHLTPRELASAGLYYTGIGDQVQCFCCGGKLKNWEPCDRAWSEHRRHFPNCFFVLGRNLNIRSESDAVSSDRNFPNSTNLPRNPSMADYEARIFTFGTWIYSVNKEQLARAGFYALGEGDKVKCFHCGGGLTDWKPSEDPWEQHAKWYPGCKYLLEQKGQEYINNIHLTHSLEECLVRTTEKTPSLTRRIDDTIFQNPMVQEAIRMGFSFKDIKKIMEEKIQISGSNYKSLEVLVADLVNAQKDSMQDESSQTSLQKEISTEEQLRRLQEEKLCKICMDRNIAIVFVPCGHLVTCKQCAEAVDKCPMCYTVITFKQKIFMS

What was measured:
Assay in all cases: log2 fold change, soluble protein after heating vs DMSO (PISA); higher = thermal stabilisation; K562 lysate, 10 uM; active = over 0.2 and 3.5 SD of the protein, either way, in both replicates (recomputed)
[1] = compound: C1=CC=C(C=C1)[C@H](COC2=CC3=C(C=C2)NC(=O)N3)NC(=O)C4=CC=CN(C4=O)CC5=CC(=C(C=C5)F)F
In short: (§1)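 K562 pellets were dounce-homogenised in PBS pH 7.4 containing 1 mM MgCl2, and the crude extract, at 1 mg/mL protein, was exposed to 10 μM compound for 30 min. Aliquots were heated for 3 min across 48°C-58°C, pooled, brought to 0.5% NP-40 at 4°C and spun at 21,000xg for 90 min, with the supernatant taken as soluble protein. TMTpro 16plex LC-MS/MS with equalised channel sums quantified that protein. Values are log-two fold changes in thermal stability relative to solvent controls, taken from duplicates.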

[2] = compound: CC1=C(SC2=C1C(=N[C@H](C3=NN=C(N32)C)CC(=O)N)C4=CC=C(C=C4)Cl)C
In short: as §1

[3] = compound: CC1=C2C(=CC=C1)N=C(N(C2=O)C3=CC=CC=C3C)CN4C=NC5=C(N=CN=C54)N
In short: as §1

[4] = compound: Cc1sc2c(c1C)C(c1ccc(Cl)cc1)=N[C@@H](CC(=O)OC(C)(C)C)c1nnc(C)n1-2
In short: as §1

[5] = compound: c1ccc([C@@H]2C[C@H]2NC2CCNCC2)cc1
In short: as §1

Measured: log2 fold change

WDR82 (UniProt Q6UXN9)
inactive: [1] 0.004 | [2] 0.003 | [3] 0.01 | [4] 0.027 | [5] -0.02

XAGE1A (UniProt Q9HD64)
inactive: [1] 0.1 | [2] 0.008 | [3] 0.105

WASH2P (UniProt Q6VEQ5)
inactive: [1] -0.004 | [2] -0.002 | [3] 0.079 | [4] 0.012 | [5] 0.008

WDR81 (UniProt Q562E7)
inactive: [1] -0.01 | [2] 0.02 | [3] 0.018 | [4] 0.013 | [5] 0.049

VPS54 (UniProt Q9P1Q0)
inactive: [1] -0.157 | [2] 0.136 | [3] 0.044 | [4] 0.053 | [5] -0.217

WDR45 isoform 2 (UniProt Q9Y484)
inactive: [1] -0.024 | [2] 0.061 | [3] 0.073 | [4] -0.018 | [5] -0.014

VPS39 (UniProt Q96JC1)
inactive: [1] -0.008 | [2] -0.002 | [3] -0.006 | [4] -0.009 | [5] 0.3

WEE1 (UniProt P30291)
inactive: [1] -0.002 | [2] -0.099 | [3] -0.047 | [4] 0.03

XIAP (UniProt P98170)
inactive: [1] 0.008 | [2] 0.029 | [3] 0.07 | [4] -0.001 | [5] 0

VPS26A (UniProt O75436)
inactive: [1] 0.01 | [2] 0.019 | [3] 0.009 | [4] -0.038 | [5] -0.02

Taken from the listing (two entries):
XIAP (UniProt P98170)
inactive: [1] 0.008 | [2] 0.029 | [3] 0.07 | [4] -0.001 | [5] 0

VPS26A (UniProt O75436)
inactive: [1] 0.01 | [2] 0.019 | [3] 0.009 | [4] -0.038 | [5] -0.02
